Measurements taken from patent publication US20260151501A1, “ANTIBODY-DRUG CONJUGATE COMPRISING ANTI-CLAUDIN-18.2 ANTIBODY, AND THERAPEUTIC USE THEREOF FOR CANCER” (ABTIS CO., LTD., priority 2022, published 2026).
No constants are given. Whether binding was seen depends on the method and setting. Some results given as binding are weak or reduced against the parent protein; the word gives no strength.

Protein sequences, listed by entry. Tags and fused reporters are not part of them. Lines headed by an entry give the natural chain unless they say otherwise; changes in a name come on top. Chains listed by the source or under a name are the forms on record and can include a tag or linker.
CLDN18.2~VLP (virus-like particle) expressing the claudin18.2 protein, CSB-MP005498HU (A5), CUSABIO (P56856, form named): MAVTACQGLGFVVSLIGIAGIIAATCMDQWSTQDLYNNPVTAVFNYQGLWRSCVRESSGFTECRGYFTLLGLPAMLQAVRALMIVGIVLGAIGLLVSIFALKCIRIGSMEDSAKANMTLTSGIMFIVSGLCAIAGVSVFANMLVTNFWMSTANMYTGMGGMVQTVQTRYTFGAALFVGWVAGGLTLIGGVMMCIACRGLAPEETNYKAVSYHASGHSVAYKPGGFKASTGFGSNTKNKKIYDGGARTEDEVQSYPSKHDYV

Target: CLDN18.2~VLP (virus-like particle) expressing the claudin18.2 protein, CSB-MP005498HU (A5), CUSABIO (UniProt P56856)
Test: indirect ELISA on coated CLDN18.2 VLP

B1: Antibody-A (anti-claudin18.2 antibody) (antibody, human IgG1, kappa, V domains shown)
VH: QVQLVESGGGVVQPGRSLRLSCAASGFSLTTYGVHWVRQAPGKGLEWVAVIWAGGSTNYNSALMSRFTISRDNSKNTLYLQMNSLRAEDTAVYYCARAAYYGNGLDYWGQGTMVTVSS
VL: DIVMTQSPLSLPVTPGEPASISCKSSQTLLNSGNQKNYLTWYLQKPGQSPQLLIYWASTGESGVPDRFSGSGSGTDFTLKISRVEAEDVGVYYCQNAYFYPFTFGGGTKVEIKR
  binding: binds
